Data: publication doi:10.1101/2022.02.25.481886

Target: T1, VAP27-1 (TAP-tagged bait) (Arabidopsis) (UniProt Q8VZ95)
T1 sequence: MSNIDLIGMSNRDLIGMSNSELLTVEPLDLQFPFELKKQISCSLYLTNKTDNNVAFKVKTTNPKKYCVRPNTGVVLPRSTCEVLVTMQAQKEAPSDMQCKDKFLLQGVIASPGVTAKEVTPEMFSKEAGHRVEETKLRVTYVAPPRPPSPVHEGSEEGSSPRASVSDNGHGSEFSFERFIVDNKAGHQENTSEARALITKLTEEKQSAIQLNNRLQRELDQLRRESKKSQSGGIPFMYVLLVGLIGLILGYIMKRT
Assay: affinity purification with mass spectrometry

binding: binds
Substance: TraB1a (endogenous, Arabidopsis cell culture) (from UniProt F4I8P4)

Results are given in words; binding and its absence hold for the method and conditions named. In cells and extracts the contact can be indirect. These calls come from enrichment with a bait or labelling near it, and not all partners need be listed. Where a sequence is shown, tags or fusion partners need not be part of it.
